Patent US20130190299A1, “METHODS AND COMPOSITIONS FOR TREATMENT OF MULTIPLE SCLEROSIS” (Victoria Link Ltd., priority 2010, published 2013)
For at least one compound, name, drawing or mass did not settle the structure.

Assays:
[1] = Body weight of treated normal and immunized mice; details: mice immunized with MOG peptide
splenocytes = experiment: Cellular profile of spleen in treated mice (flow cytometry); format: in vivo, C57BL/6 mice; details: peak disease (day 21); risperidone 3 mg/kg/day, clozapine 30 mg/kg/day; unimmunized and immunized mice
Source text: (§1) The effect of drug treatment on antigen-specific immune responses can be determined at 8 (pre-onset), […] draining lymph node (LN) cells and splenocytes from untreated and risperidone-treated, immunized or unimmunized mice. Cytokine production in response to myelin oligodendrocyte glycoprotein antigen (MOG) can be assessed by cytokine bead assay, which measures 10 cytokines simultaneously, or ELISA, and proliferation can be measured by ^3H thymidine uptake. Cellular profiles in the spleen and lymph node cells can be determined by flow cytometric analysis and can include markers for helper T cells, T regulatory cells, and macrophages.

EAE = system: EAE
Protocol: FIG. 1A illustrates an exemplary treatment of C57BL/6 mice with risperidone (administered in drinking water; 3 mg/kg/day) following immunization to induce EAE with MOG (myelin oligodendrocyte glycoprotein) peptide in complete Freund's adjuvant. Disease score is based on the progressive ascending paralysis that characterizes EAE in this animal model where 0=normal and 5=complete body paralysis (i.e. moribund).
FIG. 1B illustrates an exemplary treatment of C57BL/6 mice with risperidone (administered in drinking water; 3 mg/kg/day) following immunization to induce EAE. The data is from 4 separate and independent experiments.
AUC was measured from days 0-26 and the results are from 4 separate and independent experiments.
In these preliminary studies risperidone was given in the drinking water at a calculated dose of 1 or 3 mg/kg/day.
Commonly this time period is between 13-20 days post immunization with myelin oligodendrocyte glycoprotein (50 μg/mouse) in complete Freund's adjuvant and injected i.p with pertussis toxin (200 ng/mouse) on days 0 and 2. Treatment during the “chronic” stage (when disease scores remain stable) may begin 30 days post immunization with myelin oligodendrocyte glycoprotein. For all of these studies, the optimal dose of risperidone may be used as determined by the experiments described above. […] This model is well established and has the added benefit of having many different immunological reagents available for use in the C57BL/6 system.

[2] = animal models; cited from earlier work
[3] = system: bone marrow-derived macrophages; experiment: Bone marrow-derived macrophages treated in vitro with or without LPS; details: 20 μg/ml risperidone or 10 μ/ml clozapine, versus vehicle-treated macrophages
Protocol: Identification of how risperidone alters pro-inflammatory and/or anti-inflammatory immune responses is necessary.
Studies were conducted herein to evaluate the regulation of macrophage proinflammatory responses in vitro.

microglia = experiment: Microglial reactivity by Iba-1 expression in brains of immunized mice; format: in vivo; details: peak disease (15 days post immunization), cerebellum, brain stem, hippocampus, olfactory bulb
Protocol: FIG. 9A illustrates exemplary Iba-1 expression on microglia in the cerebellum of mice. […] Tissue samples were taken at peak disease (15 days post immunization). Shown are the scores for microglia reactivity (Iba score) and disease.
One group (risperidone d11) was immunized but only received risperidone treatment starting at day 11 (i.e. after disease onset). Scores for Iba-1 reactivity were assessed blinded and derived from a combined score for Iba intensity (0-3) and # Iba+ foci (0-3).
Scores for Iba-1 reactivity were assessed blinded and derived from a combined score (0-6) for Iba intensity (0-3) and number of Iba+ foci (0-3). Scores for the following brain regions were combined: cerebellum, brain stem, hippocampus, and olfactory bulb (0-24).
Scores for Iba-1 reactivity in the cerebellum were assessed blinded and derived from a combined score (0-6) for Iba intensity (0-3) and number of Iba+ foci (0-3).
Studies were performed to assess microglial reactivity via the expression of Iba-1 (FIG. 9A-F).

[4] = system: auto-reactive T cell responses; experiment: Cytokine production and T cell proliferation in response to MOG antigen or ConA, cells from treated immunized mice; format: cell-based, C57BL/6 mice; details: 21 days post immunization
Source text: (§2) Shown are the mean and standard error of the mean (n=5 mice per group).
as §2, §2, §2, §2, §2
FIG. 5A illustrates exemplary antigen specific (L-17 production (pg/ml) in C57BL/6 mice, which were treated with risperidone or vehicle alone, and immunized to induce EAE 40 days earlier. Shown are the mean and standard error of the mean (n=5-10 mice per group).
FIG. 5B illustrates exemplary antigen specific interferon y production (pg/ml) in C57BL/6 mice, which were treated with risperidone or vehicle alone, and immunized to induce EAE 40 days earlier. Shown are the mean and standard error of the mean (n=5-10 mice per group).
FIG. 5C illustrates exemplary antigen specific IL-10 production (pg/ml) in C57BL/6 mice, which were treated with risperidone or vehicle alone, and immunized to induce EAE 40 days earlier. Shown are the mean and standard error of the mean (n=5-10 mice per group).
FIG. 5D illustrates exemplary T cell proliferation in counts per minute in immunized and normal C57BL/6 mice, which were treated with risperidone or vehicle alone. Shown are the mean and standard error of the mean (n=5-10 mice per group).
as §1, with “drug” for “drug treatment on antigen-specific immune responses can be determined at 8 (pre-onset),”

CN1CCN(C2=Nc3cc(Cl)ccc3Nc3ccccc32)CC1 [clozapine]
weight loss associated with EAE [1]: reduce the weight loss
overall immune cells in the spleen (total splenocyte numbers) (splenocytes): does not result in overall loss
area under the curve (AUC), total disease burden (EAE; AUC of disease score, risperidone days 0-26, 4 independent experiments): reduction
average disease score during the chronic stage (EAE; drinking water from one day before immunization): stable reduction
efficacy of higher versus lower dose (EAE; risperidone 3 vs 1 mg/kg/day, clozapine 30 vs 15 mg/kg/day): 30 mg/kg/day is more effective
apomorphine-induced stereotypy [2]: nor inhibit apomorphine-induced stereotypy
IL-12 production in response to LPS [3]: produce less
NO production in response to LPS [3]: produce less
microglial reactivity (Iba-1 expression) (microglia): greatly reduced
production of IL-10 with polyclonal stimulus (ConA) [4]: no alteration
production of INF-γ with polyclonal stimulus (ConA) [4]: no alteration
production of IFN-γ in response to MOG antigen ([4]; peak disease): does not alter
production of IL-10 in response to MOG antigen ([4]; peak disease): significantly reduce
production of IL-17 in response to MOG antigen ([4]; peak disease): significantly reduce
